Results taken from BindingDB's records for PubMed 2139469 (University of Nebraska, 1990).
Structures can show the parent of a compound that is named as a salt.

By UniProt entry, the sequences of proteins in these tests, tags left out.
UniProt Q95136, whole entry: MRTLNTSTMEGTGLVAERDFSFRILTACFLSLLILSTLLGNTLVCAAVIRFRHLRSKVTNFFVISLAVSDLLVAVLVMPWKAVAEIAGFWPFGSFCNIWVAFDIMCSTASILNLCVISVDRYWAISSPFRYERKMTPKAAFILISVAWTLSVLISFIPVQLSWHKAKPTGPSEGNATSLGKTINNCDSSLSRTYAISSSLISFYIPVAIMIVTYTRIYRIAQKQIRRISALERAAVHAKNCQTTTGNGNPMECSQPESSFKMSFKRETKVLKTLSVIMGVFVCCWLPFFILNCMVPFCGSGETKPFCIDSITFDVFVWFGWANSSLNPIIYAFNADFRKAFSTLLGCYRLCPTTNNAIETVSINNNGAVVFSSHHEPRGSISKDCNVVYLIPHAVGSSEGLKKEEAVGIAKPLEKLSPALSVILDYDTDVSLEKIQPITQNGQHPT

Target: D(1A) dopamine receptor (Bos taurus, UniProt Q95136)

Compound	Ki [nM]
OCCN1CCN(CCCN2c3ccccc3Sc3ccc(C(F)(F)F)cc32)CC1 [2-[4-[3-[2-(trifluoromethyl)phenothiazin-10-yl]propyl]piperazin-1-yl]ethanol;hydrochloride]	18
CC(C)NC[C@H](O)COc1cccc2ccccc12 [Propanolol,(+/-)]	> 10000
